# Screen size: about 410,000 compounds; about 18,000 (4.4%) were called active. The shares of active, inactive and inconclusive entries below differ from those in the screen. Cut-off read from the data, not from the text of the source: active = activity change below about -60%; inconclusive = no clear call, values can overlap the other calls; inactive = above about -39%.
# Assay: qHTS Assay for inhibitors of the human cytomegalovirus (HCMV)
# Conditions: HFF cells, HCMV-luciferase reporter, 72 h; at 57.5 µM; stronger effect = lower value
# In short: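 After 16 h attachment at 37C, HFF cells received test compound and HCMV-luciferase (1 PFU/cell); reporter luminescence read 72 h later, data normalized against buffer-only and known inhibitor Salinomycin.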
# % is set by controls: 0 for no effect and ±100 for the full control effect.
row,SMILES,"activity change, negative = inhibition"
1,COC(=O)C1=CN(c2ccccc2OC)C(N)=C(C#N)C1c1cccc([N+](=O)[O-])c1 (configuration not stated),inconclusive: -47.7%
2,S=P(NCCSCc1ccccc1)(N1CC1)N1CC1,inconclusive: -50.3%
3,O=C(COc1cccc2c1CCN(Cc1ccc(Cl)cc1)C2=O)N1CCOCC1,inconclusive: -43.7%
4,O=C1/C(=C/c2ccc(Cl)cc2)NC(=S)N1Cc1cccnc1,inconclusive: -48.1%
5,Cn1c(SCC#N)nc2ccccc2c1=O,inconclusive: -50.4%
6,COc1cccc(OC)c1C(=O)Nc1nc2ccc([N+](=O)[O-])cc2s1,inconclusive: -48.8%
7,O=C(CSc1ccccc1)Nc1ccc2c(c1)OCCO2,inactive: 65.1%
8,COc1ccccc1CC(=O)Nc1ccc(S(=O)(=O)N2CC(C)CC(C)C2)cc1 (configuration not stated),inconclusive: -41.9%
9,Cc1ccccc1C(=O)NNC(=S)NC(=O)c1ccc(Cl)cc1Cl,inconclusive: -59.9%
10,COc1ccc(OCCSc2ncn[nH]2)cc1,inactive: 12%
11,CCOC(=O)c1ccc(Nc2nc(C(=O)OCC)nc3ccccc23)cc1,inconclusive: -46.2%
12,CCOC(=O)C1CCN(C(=O)c2ccc(Cl)c(S(=O)(=O)N3CCOCC3)c2)CC1,inconclusive: -52.1%
13,CCCCOc1ccc(Cc2c(COCC)[nH]c(=S)[nH]c2=O)cc1,inactive: -6.86%
14,CC(C)(C)CNC(=O)c1cccc2c1C(=O)c1ccc(N3CCCC3)cc1S2(=O)=O,inactive: 1.2%
15,CN(C/C=C/c1ccccc1)C1CCCCC1,inconclusive: -41.3%
16,CCOC(=O)C1CCCN(C(=O)c2ccc3c(c2)N(Cc2cccc(Cl)c2)C(=O)c2ccccc2S3(=O)=O)C1 (configuration not stated),active: -63.5%
17,c1ccc(CN2CCCC3(CCCN(Cc4nc(CC5CC5)no4)C3)C2)cc1 (configuration not stated),inactive: 1.2%
18,CCOC(=O)c1c(C)[nH]c(C)c1C(=O)COC(=O)c1sccc1C,inactive: -4.57%
19,CC1(c2nc3ccccc3[nH]2)CCC2=Nc3ccccc3CN21 (configuration not stated),inactive: -6.96%
20,O=C(CCn1cnc(-c2ccccc2)c1-c1ccccc1)N/N=C/c1ccccc1O,inconclusive: -58.5%
21,Cc1cc(NC(=O)CCc2ccc(-c3ccccc3)o2)no1,active: -102%
22,CCC(Oc1cc(Cl)ccc1Cl)C(=O)NNC(=O)CCC(=O)O (configuration not stated),inconclusive: -41.3%

row,SMILES,"activity change, negative = inhibition"
1,O=C(Nc1cc(C(F)(F)F)ccc1Cl)c1cccc(N2C(=O)CCC2=O)c1,inconclusive: -44.8%
2,O=[N+]([O-])c1ccc(N2CCCCC2)c2ncccc12,inconclusive: -40.6%
3,Cc1ccc(C(C)C)c(OCC(=O)Nc2nc3c(s2)CCCC3)c1,active: -82.4%
4,CCN(CC)C(=O)c1cccc(C)c1,inconclusive: -55.4%
5,CC(=O)Nc1ccc(S(=O)(=O)NCCSCc2ccccc2Cl)cc1,active: -84.4%
6,COc1cccc(C(c2nnnn2-c2c(C)cccc2C)N2CCC(n3c(=O)[nH]c4ccccc43)CC2)c1OC (configuration not stated),inconclusive: -47.1%
7,Cc1cc(C(=O)Nc2ccc3c(c2)OCCO3)ccc1[N+](=O)[O-],inactive: 115%
8,CCc1c(O)cc(=O)n(-c2ccccc2)c1-c1ccccc1,inactive: -12.7%
9,O=C(Nc1cccc(C(F)(F)F)c1)c1ccc(N2CCNCC2)c([N+](=O)[O-])c1,active: -65.3%
10,COc1ccc(CNc2nc(C)c([N+](=O)[O-])c(C)c2C#N)cc1,inconclusive: -55.4%
11,CCOC(=O)C1(Cc2ccccc2C(F)(F)F)CCN(Cc2ccc(COC)o2)CC1,inconclusive: -43.2%
12,COc1ccccc1N1CCN(S(=O)(=O)c2cc(-c3cc(C)no3)ccc2C)CC1,inconclusive: 0%
13,COc1ccc(OCc2cc(C(=O)NC3CCc4ccccc43)no2)c(Cl)c1 (configuration not stated),inactive: -4.94%
14,COc1ccccc1C(=O)c1nc2ccccc2n1C,inconclusive: -49.5%
15,O=C(Nc1ccc(-c2nc3ccccc3s2)cc1)C1=COCCO1,inactive: -20.7%
16,COc1ccc(-n2cc(C(=O)NCc3ccc(Cl)cc3)c3ccccc3c2=O)cc1,inactive: -18.4%
17,Nc1c(Cl)ncnc1NCc1ccccc1,inconclusive: -46.7%
18,CCOC(=O)C1=C(CN2CCN(c3cc(C)ccc3C)CC2)NC(=O)NC1c1ccccc1 (configuration not stated),inconclusive: -52.9%
19,CCC(C)(C)C(=O)Nc1ccc(OC)cc1[N+](=O)[O-],inconclusive: -40.9%
20,CCCc1cc(=O)n2nc(N3CCC(C(=O)N4CCN(c5cccc(OC)c5)CC4)CC3)sc2n1,active: -70.1%
21,Cc1cc(C)c(Cn2c(C)c(CNCc3ccccc3C)c(C(=O)O)c2C)c(C)c1,inactive: 25.9%
22,COc1ccc(S(=O)(=O)N2CCN=C2SCc2cccc(C)c2)cc1,active: -74.7%

row,SMILES,"activity change, negative = inhibition"
1,CN(C)CCCn1c2c(c(SCC(=O)Nc3ccc4c(c3)OCO4)nc1=O)CCCC2,inconclusive: -43.3%
2,O=C(O)CCC(=O)NN1C(=O)c2ccccc2NC1c1ccc(F)cc1 (configuration not stated),inconclusive: 0%
3,O=C(O)CC(Sc1ccc(Cl)cc1)C(=O)Nc1ccccc1 (configuration not stated),inactive: -2.15%
4,CC1CCC(NC(=O)COC(=O)C2=NN(c3ccccc3)C(=O)CC2)CC1 (configuration not stated),inactive: 10.3%
5,O=C(Cc1ccccc1)c1c[nH]c(C(=O)NCCCN2CCOCC2)c1,inactive: -8.03%
6,O=S(=O)(Nc1cccc(CCc2ccccn2)c1)c1ccc(Cl)cc1,inconclusive: -53%
7,COc1ccc(/C=N\N=C(N)N)cc1,inconclusive: -44.2%
8,COC(=O)/C(C#N)=C/c1c(N2CCN(Cc3ccc4c(c3)OCO4)CC2)nc2c(C)cccn2c1=O,inactive: 0.459%
9,CCCCCC(=O)N[C@@H](c1ccccc1)[C@@H](O)C(=O)O[C@H]1C[C@@]2(O)[C@@H](OC(=O)c3ccccc3)C3[C@](C)(C(=O)[C@H](OC(C)=O)C(=C1C)C2(C)C)[C@@H](O)C[C@H]1OC[C@@]31OC(C)=O (some centres not stated),inconclusive: -58.4%
10,COc1ccc(CN(C)C(C)C(=O)N(C)CC(=O)Nc2ccc(C)cc2)cc1F (configuration not stated),inconclusive: 0%
11,O=C(NCC1CCCO1)C(c1cccs1)N(Cc1cccs1)C(=O)c1ccc(-c2ccccc2)[nH]1 (configuration not stated),inconclusive: -58%
12,Cc1nnc(Nc2ccc3c(c2)OCO3)c2ccccc12,active: -91.1%
13,CCOc1cccc(CNCCO)c1OCc1ccc(Cl)cc1Cl,inconclusive: -55.1%
14,CNc1nc(-c2cccs2)cc(C(F)(F)F)c1C#N,inconclusive: -56%
15,Cc1c(Cl)cccc1NC(=O)Cc1ccc([N+](=O)[O-])cc1,inconclusive: -45.9%
16,COc1ccc(O)c(-c2nc(N)nc(N)n2)c1,inactive: -32.4%
17,Cc1cccc(C)c1Cn1c(C)c(C(=O)NCc2ccccc2C(F)(F)F)sc1=O,inconclusive: -59.8%
18,O=C(CSc1ncn[nH]1)NNC(=O)c1ccccc1,inconclusive: -41.5%
19,COc1ccccc1N(C)S(=O)(=O)c1ccc(Cl)c(C(=O)NNC(=O)c2ccccc2O)c1,inconclusive: -41.2%
20,Cc1cc(NC(=O)CSc2nnc(-c3ccc(S(=O)(=O)N4CCCC4)cc3)n2C)no1,inactive: -21.9%
21,CCOc1ccccc1N(CC(=O)NCC1CCCO1)C(=O)CCC(=O)Nc1nccs1 (configuration not stated),inconclusive: -52.5%
22,O=C1CCc2ccc(NC(=O)C3CC3)cc2N1,inactive: 99.6%

row,SMILES,"activity change, negative = inhibition"
1,CC(=O)Nc1cccc(C(=O)NC2CCCc3c2cnn3-c2cc(C)cc(C)c2)c1 (configuration not stated),inconclusive: -55.9%
2,CCCCOc1ccc(C(=O)OCC(=O)NC2CCCC2)cc1,active: -99.7%
3,O=C(Nc1ccc(F)c([N+](=O)[O-])c1)C(=O)c1c(O)[nH]c2ccccc12,inactive: 40.1%
4,Cc1ccc(S(=O)(=O)N(C)CCCC(=O)N2CCN(c3ccccn3)CC2)cc1,inconclusive: -41.9%
5,Cc1ccc(NC(=O)c2sc(N)nc2-c2ccccc2)cc1C,inconclusive: -54.3%
6,COc1ccc(NCc2nc3ccccc3n2CCOc2ccc(C)cc2)cc1,inconclusive: -41.1%
7,COc1ccc(C(=O)/C=C/C(=O)N(Cc2ccc3c(c2)OCO3)C(C(=O)NC2CCCCC2)c2ccncc2)c(O)c1 (configuration not stated),inconclusive: -50%
8,COc1ccc(Nc2nccc(-c3ccc([N+](=O)[O-])cc3)n2)cc1,inconclusive: -46.7%
9,Cc1ccc([C@H]2C[C@@H](n3cc(C4CC4)nn3)[C@H](O)CN2CC2CCCCC2)cc1,inactive: 12.1%
10,C/C(Cn1cnc([N+](=O)[O-])n1)=N\NC(=O)c1cccnc1,inactive: 5.84%
11,C=C(C)CSc1[nH]c(=O)cc(C)c1C#N,inactive: 2.64%
12,CCOC(=O)c1c(NC(=O)C2c3ccccc3Oc3ccccc32)sc(C(C)=O)c1C,active: -81.9%
13,COc1ccc(C(C(=O)NCc2ccccc2)N(C(=O)Cn2nnc3ccccc32)c2ccc(F)cc2)cc1 (configuration not stated),inconclusive: -48.6%
14,CCOc1ccc(S(=O)(=O)Nc2ccccc2C(=O)N2CCCC2)cc1,inconclusive: -44.9%
15,CCOc1ccc2cc(-c3nnc(Nc4ccccc4F)s3)c(=O)oc2c1,inactive: -18.9%
16,CCOC(=O)C1=C(O)CCn2c1nc1ccccc12,active: -107%
17,O=C(Nc1cccc(-c2cccc(F)c2)c1)C1CCN(Cc2ccco2)CC1,inconclusive: -41.1%
18,Cc1ccc(C)c(S(=O)(=O)N2CCN(C(=O)Cc3c(F)cccc3Cl)CC2)c1,inconclusive: -40.7%
19,O=C(NCc1cccc(Br)c1)c1ccc(-n2cnc3cccnc32)cc1,inconclusive: 0%
20,O=C(N/N=C/c1ccoc1)c1ccccc1,inactive: 50.5%
21,Cc1c2cnn(CC(=O)O)c(=O)c2c(C)n1Cc1cccc(Cl)c1,inconclusive: -53.5%

# Source: PubChem BioAssay AID1259415 (National Center for Advancing Translational Sciences (NCATS), 2018)
